Laboratory results from patent US7572888B2, “Methods of assaying receptor activity and constructs useful in such methods” (Duke University, priority 1997, dated 2009).

Test: in vivo
Conditions: mouse, whole blood, 10 mg/kg
Procedure: After 30 minutes or 2 hours, wild-type mice were killed and blood was collected in vials containing sodium fluoride and potassium-oxalate.

[1] = C57BL/6 x 129SvJ (wild-type of the βarr2 knockout line), sc

CN1CC[C@]23c4c5ccc(O)c4O[C@H]2[C@@H](O)C=C[C@H]3[C@H]1C5 [morphine] showed a concentration at 30 min [1] of 1500 ng/mL, a concentration at 2 h [1] of 83 ng/mL and a concentration at 2 h (C57BL/6 x 129SvJ (βarr2 knockout), subcutaneous) of 93 ng/mL.
